The list shows a part of the results.

Protein sequences, listed by entry. Tags and fused reporters are not part of them. Lines headed by an entry give the natural chain unless they say otherwise; changes in a name come on top.
UniProt P05556, whole entry, looked up: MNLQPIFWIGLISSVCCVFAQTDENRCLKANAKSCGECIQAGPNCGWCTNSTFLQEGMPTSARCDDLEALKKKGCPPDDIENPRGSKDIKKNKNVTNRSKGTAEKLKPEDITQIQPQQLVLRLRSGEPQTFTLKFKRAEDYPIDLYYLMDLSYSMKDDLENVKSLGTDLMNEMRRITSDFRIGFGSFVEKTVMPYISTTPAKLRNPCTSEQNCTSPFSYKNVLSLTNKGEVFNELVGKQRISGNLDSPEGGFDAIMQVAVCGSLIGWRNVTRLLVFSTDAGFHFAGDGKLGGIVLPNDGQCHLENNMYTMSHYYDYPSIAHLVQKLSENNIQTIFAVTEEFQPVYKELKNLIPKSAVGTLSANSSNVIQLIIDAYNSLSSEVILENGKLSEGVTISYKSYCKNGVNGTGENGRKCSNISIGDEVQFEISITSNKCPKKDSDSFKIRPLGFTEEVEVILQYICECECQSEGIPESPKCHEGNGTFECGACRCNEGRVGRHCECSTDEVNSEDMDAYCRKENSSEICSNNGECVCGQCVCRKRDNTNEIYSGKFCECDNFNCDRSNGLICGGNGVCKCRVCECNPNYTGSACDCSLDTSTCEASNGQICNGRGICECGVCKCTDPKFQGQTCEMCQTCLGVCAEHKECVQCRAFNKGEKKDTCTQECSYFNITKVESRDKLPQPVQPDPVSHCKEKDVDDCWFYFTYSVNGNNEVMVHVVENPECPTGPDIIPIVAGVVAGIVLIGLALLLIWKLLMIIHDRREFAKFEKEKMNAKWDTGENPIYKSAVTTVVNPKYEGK
UniProt O95373, whole entry, looked up: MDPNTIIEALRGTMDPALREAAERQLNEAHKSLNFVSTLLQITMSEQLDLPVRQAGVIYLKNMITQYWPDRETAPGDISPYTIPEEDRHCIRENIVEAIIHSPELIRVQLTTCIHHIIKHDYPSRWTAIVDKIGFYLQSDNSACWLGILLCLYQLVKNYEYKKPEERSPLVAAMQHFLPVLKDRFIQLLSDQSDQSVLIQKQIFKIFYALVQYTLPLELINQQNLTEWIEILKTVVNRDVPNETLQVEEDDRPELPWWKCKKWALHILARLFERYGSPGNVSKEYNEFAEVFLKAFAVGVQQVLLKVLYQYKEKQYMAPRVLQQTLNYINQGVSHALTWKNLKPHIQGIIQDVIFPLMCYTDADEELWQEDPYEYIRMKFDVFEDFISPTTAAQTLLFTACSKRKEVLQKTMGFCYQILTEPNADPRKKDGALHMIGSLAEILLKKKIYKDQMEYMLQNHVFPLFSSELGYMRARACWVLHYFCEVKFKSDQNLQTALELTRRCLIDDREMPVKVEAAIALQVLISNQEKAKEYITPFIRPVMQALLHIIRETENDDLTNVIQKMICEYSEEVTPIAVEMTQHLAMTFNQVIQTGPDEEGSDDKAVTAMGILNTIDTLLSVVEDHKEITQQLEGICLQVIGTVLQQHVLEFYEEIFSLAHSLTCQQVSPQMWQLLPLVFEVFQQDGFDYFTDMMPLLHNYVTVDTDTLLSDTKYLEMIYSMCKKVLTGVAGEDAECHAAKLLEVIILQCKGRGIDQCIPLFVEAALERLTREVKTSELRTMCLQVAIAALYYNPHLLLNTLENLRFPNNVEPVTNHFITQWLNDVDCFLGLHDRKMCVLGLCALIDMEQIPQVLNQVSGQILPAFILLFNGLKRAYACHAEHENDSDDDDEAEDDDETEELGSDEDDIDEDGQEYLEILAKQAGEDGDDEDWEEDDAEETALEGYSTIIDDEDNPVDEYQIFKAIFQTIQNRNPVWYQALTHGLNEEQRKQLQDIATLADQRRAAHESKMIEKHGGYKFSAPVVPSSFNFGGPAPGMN
UniProt O00410: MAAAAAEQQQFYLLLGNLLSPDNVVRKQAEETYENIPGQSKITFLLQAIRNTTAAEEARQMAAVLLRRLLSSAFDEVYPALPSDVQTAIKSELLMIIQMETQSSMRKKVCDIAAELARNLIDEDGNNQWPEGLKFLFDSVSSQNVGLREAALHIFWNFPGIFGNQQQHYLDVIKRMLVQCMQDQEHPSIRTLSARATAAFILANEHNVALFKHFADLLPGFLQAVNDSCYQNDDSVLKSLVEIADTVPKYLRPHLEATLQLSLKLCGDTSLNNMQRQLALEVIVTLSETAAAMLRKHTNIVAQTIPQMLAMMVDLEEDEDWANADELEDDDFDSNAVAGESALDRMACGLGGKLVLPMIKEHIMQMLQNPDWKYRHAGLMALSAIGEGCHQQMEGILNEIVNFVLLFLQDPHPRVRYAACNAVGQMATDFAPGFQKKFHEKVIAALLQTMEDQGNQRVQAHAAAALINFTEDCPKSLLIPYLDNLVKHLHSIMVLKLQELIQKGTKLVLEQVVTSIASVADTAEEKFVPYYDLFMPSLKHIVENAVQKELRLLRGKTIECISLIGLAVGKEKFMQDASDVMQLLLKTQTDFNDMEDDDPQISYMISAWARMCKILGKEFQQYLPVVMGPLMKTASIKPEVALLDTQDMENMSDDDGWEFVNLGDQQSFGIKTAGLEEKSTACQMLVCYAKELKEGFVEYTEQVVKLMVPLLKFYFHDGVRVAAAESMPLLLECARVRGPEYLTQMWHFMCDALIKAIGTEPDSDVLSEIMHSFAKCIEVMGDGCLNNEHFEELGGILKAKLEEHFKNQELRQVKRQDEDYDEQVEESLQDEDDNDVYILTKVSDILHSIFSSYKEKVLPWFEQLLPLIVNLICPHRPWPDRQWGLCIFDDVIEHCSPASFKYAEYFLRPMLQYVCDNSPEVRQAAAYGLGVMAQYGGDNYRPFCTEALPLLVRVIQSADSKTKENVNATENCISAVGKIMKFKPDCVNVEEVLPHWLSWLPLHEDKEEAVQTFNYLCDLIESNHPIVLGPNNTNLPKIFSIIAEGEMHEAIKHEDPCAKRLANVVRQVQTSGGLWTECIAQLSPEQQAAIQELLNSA
UniProt P05107, whole entry, looked up: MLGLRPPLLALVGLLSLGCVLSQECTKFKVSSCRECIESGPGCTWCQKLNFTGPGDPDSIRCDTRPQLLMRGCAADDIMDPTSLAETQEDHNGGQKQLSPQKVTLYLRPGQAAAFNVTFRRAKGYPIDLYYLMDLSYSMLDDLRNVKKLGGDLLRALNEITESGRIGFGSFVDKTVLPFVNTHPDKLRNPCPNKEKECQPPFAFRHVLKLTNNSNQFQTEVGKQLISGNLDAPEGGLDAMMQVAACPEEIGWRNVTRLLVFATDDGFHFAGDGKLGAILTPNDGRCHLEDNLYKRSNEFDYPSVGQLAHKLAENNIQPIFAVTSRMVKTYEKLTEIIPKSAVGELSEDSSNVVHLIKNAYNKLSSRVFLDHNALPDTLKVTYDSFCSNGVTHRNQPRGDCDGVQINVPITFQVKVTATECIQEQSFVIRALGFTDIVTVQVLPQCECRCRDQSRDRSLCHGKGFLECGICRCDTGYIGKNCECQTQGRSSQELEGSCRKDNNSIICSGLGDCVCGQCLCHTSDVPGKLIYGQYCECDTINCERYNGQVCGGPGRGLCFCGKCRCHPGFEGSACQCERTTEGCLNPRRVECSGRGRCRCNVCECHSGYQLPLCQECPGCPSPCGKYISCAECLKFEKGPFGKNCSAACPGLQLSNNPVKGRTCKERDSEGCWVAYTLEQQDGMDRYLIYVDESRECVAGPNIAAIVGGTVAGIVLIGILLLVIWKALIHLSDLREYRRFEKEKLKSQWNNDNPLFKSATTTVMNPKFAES
UniProt Q02556: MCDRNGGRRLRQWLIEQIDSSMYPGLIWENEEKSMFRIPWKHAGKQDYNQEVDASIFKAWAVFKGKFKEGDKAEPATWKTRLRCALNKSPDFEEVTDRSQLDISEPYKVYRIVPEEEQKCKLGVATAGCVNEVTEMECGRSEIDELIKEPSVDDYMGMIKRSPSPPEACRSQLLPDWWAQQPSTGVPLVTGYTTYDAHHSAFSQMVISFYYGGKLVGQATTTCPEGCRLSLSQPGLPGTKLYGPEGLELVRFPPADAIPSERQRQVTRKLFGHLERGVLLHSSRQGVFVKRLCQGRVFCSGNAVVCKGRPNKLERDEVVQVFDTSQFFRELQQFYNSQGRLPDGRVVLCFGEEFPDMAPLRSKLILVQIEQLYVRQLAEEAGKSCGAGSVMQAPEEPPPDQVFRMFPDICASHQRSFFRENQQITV
UniProt P13612, whole entry, looked up: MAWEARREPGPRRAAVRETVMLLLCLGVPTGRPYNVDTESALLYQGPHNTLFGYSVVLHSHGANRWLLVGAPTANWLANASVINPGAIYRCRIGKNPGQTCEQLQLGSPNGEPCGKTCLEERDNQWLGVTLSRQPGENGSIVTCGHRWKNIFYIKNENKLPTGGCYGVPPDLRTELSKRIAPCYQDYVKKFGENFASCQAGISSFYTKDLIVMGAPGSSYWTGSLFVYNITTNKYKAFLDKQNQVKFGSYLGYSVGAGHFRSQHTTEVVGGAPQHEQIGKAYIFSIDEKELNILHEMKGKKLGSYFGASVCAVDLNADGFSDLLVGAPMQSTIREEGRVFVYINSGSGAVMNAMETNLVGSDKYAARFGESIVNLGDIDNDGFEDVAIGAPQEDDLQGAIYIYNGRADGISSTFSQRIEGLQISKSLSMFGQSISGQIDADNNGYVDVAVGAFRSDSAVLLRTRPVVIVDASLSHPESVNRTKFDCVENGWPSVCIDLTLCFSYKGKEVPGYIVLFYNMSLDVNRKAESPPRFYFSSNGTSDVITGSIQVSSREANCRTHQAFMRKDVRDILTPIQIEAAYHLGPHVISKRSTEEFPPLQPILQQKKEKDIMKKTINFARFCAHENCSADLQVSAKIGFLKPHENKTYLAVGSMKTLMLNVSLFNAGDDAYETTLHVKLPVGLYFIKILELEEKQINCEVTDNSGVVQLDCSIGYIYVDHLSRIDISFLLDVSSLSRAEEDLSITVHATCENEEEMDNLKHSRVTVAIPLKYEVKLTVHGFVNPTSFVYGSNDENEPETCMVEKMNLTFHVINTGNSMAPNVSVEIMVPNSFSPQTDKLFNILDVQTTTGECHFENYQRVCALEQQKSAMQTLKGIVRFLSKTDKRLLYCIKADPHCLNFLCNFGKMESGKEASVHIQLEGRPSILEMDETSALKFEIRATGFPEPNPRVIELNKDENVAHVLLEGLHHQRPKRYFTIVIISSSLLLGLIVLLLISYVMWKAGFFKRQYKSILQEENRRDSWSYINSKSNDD
UniProt Q96AB3: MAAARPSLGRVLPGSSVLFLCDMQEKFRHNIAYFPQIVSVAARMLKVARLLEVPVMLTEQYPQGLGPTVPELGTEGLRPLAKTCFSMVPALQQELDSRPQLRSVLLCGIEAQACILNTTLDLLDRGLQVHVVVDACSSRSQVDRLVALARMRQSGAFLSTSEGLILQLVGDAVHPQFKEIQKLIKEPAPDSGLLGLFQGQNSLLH
UniProt Q9UHH9: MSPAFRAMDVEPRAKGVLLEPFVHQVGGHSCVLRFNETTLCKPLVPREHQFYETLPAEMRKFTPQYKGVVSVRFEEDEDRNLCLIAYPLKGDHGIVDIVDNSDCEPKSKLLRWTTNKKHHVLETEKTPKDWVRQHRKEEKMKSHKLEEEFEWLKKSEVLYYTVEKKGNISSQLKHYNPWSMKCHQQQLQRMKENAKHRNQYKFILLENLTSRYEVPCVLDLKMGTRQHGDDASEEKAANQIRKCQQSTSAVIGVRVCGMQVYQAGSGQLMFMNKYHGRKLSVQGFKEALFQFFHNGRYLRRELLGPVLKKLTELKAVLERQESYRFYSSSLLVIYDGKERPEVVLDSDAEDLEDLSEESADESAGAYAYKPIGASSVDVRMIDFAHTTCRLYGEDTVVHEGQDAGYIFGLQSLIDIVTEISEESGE
UniProt Q7Z5L9: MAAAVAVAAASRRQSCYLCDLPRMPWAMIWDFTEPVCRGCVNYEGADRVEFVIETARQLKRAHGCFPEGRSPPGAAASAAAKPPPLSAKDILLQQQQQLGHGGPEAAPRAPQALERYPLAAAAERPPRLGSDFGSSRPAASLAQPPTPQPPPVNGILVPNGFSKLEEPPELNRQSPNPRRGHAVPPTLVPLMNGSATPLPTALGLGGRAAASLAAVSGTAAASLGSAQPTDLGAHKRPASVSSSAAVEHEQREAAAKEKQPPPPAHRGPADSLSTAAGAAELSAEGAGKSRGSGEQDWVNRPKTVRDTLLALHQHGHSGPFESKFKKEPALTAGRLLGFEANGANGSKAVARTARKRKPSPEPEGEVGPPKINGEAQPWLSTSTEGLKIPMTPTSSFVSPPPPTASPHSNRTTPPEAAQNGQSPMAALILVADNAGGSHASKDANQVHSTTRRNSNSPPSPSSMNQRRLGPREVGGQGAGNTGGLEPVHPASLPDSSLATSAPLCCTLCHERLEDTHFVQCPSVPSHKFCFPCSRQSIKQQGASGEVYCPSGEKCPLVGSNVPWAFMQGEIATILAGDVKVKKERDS

Compound in this experiment: Cc1cc(ccc1-c1ccccc1)C(=O)N1CCCN(CC1)C(=O)CCl [compound 10]
The experiment in a line: probe-labelled cysteine peptide fold change vs DMSO (competition) (log2 fold change); higher = less target engagement (more negative = stronger competition). The settings on record: THP-1, incubation time: 4 h.
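Also: competitive profiling in live THP-1 cells: cysteine peptides tagged with an iodoacetamide desthiobiotin (IA-DTB) probe, intensity after compound treatment relative to DMSO-treated cells.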

As to “ITGB1_P05556_64_CDDLEALK (UniProt P05556)”, the “probe-labelled cysteine peptide fold change” value reads like this: (10 µM) -0.155; (50 µM) -0.196.
The matching figures for “IPO7_O95373_757_GIDQCIPLFVEAALER (UniProt O95373)”: -0.699 and 0.299.
As to “IPO5_O00410_180_MLVQCMQDQEHPSIR (UniProt O00410)”, the “probe-labelled cysteine peptide fold change” value reads like this: (10 µM) 0.0241; (50 µM) -0.0412.
The matching figures for “ITGB2_P05107_286_CHLEDNLYKR (UniProt P05107)”: -0.146 and -0.0878.
The matching figures for “ITGB1_P05556_618_GICECGVCK (UniProt P05556)”: 0.0575 and 0.0123.
The matching figures for “INTS3_Q68E01_959_QNFFSQTPILQALQHVQASCDEAHK (UniProt Q68E01)”: -0.123 and -0.0115.
As to “IRF8_Q02556_306_VFCSGNAVVCK (UniProt Q02556)”, the “probe-labelled cysteine peptide fold change” value by setting is: (10 µM) -0.096; (50 µM) -0.648.
The matching figures for “ITGA5_P08648_156_AHGSSILACAPLYSWR (UniProt P08648)”: -0.171 and 0.231.
As for “IPO9_Q96P70_90_QYVETHWCAQSEK (UniProt Q96P70)”, the “probe-labelled cysteine peptide fold change” value by setting is: (10 µM) -0.058; (50 µM) 0.0337.
The matching figures for “ITGB1_P05556_500_HCECSTDEVNSEDMDAYCR (UniProt P05556)”: -0.0207 and -0.251.
The matching figures for “IQGAP1_P46940_524_AQAHAENNEFITWNDIQACVDHVNLVVQEEHER (UniProt P46940)”: 0.181 and 0.213.
The matching figures for “ITGA4_P13612_198_KFGENFASCQAGISSFYTK (UniProt P13612)”: -0.185 and -0.242.
For “INTS14_Q96SY0_218_CGHLTADVQVFPRPEPFVVDEEIDPIPK (UniProt Q96SY0)”, the “probe-labelled cysteine peptide fold change” value was 0.177 (10 µM) and 0.138 (50 µM).
The matching figures for “ISOC2_Q96AB3_21_VLPGSSVLFLCDMQEK (UniProt Q96AB3)”: -0.115 and 0.0895.
The matching figures for “IPO5_O00410_682_STACQMLVCYAK (UniProt O00410)”: 0.0796 and -0.0653.
The matching figures for “IP6K2_Q9UHH9_104_GDHGIVDIVDNSDCEPK (UniProt Q9UHH9)”: -0.102 and 0.801.
Turning to “IQGAP1_P46940_57_WMEACLGEDLPPTTELEEGLR (UniProt P46940)”, the “probe-labelled cysteine peptide fold change” value is -0.191 (10 µM) and 0.0173 (50 µM).
The matching figures for “IQGAP1_P46940_660_SPDVGLYGVIPECGETYHSDLAEAKK (UniProt P46940)”: -0.213 and -0.0822.
The matching figures for “ITGA4_P13612_183_IAPCYQDYVK (UniProt P13612)”: 0.0498 and 0.312.
The matching figures for “INTS3_Q68E01_843_EHPEALSCLLLQLR (UniProt Q68E01)”: -0.0584 and -4.29e-05.
Regarding “ITGAV_P06756_97_CQPIEFDATGNR (UniProt P06756)”, the “probe-labelled cysteine peptide fold change” value is, setting by setting: (10 µM) -0.0783; (50 µM) 0.262.
Regarding “INSR_P06213_1083_GFTCHHVVR (UniProt P06213)”, the “probe-labelled cysteine peptide fold change” value turned out to be 0.1 (10 µM) and 0.329 (50 µM).
The matching figures for “ITFG2_Q969R8_326_LDVTGNGHEEVVACAWDGQTYIIDHNR (UniProt Q969R8)”: 0.15 and 0.427.
The matching figures for “IRF8_Q02556_299+306_VFCSGNAVVCK (UniProt Q02556)”: 0.143 and -0.622.
Take “IPO11_Q9UI26_252_QFLECSR (UniProt Q9UI26)”: the “probe-labelled cysteine peptide fold change” value was -0.0351 (10 µM) and 0.553 (50 µM).
The matching figures for “IRF2BP2_Q7Z5L9_16_RQSCYLCDLPR (UniProt Q7Z5L9)”: 0.00367 and -0.1.
The matching figures for “INTS13_Q9NVM9_134_ADPECCSILHGLVAAVETLCK (UniProt Q9NVM9)”: 0.161 and 0.0492.
For the target “INTS10_Q9NVR2_176_LFVCDVLPLIINNHDVR (UniProt Q9NVR2)”, the “probe-labelled cysteine peptide fold change” value (10 µM) came to 0.0624 and the “probe-labelled cysteine peptide fold change” value (50 µM) turned out to be 0.579.
In the case of “IPO7_O95373_736_KVLTGVAGEDAECHAAK (UniProt O95373)”, the “probe-labelled cysteine peptide fold change” value reads like this: (10 µM) -0.142; (50 µM) -0.403.
For “IPO4_Q8TEX9_566+574_AVGEPMRPLAEECCQLGLGLCDQVDDPDLRR (UniProt Q8TEX9)”, the “probe-labelled cysteine peptide fold change” value is 0.032 (10 µM) and -1.04 (50 µM).
The matching figures for “ITGB2_P05107_670_ERDSEGCWVAYTLEQQDGMDR (UniProt P05107)”: 0.42 and 0.326.
The matching figures for “IRF2BP2_Q7Z5L9_65_RAHGCFPEGR (UniProt Q7Z5L9)”: -0.022 and -0.22.
For “IQGAP3_Q86VI3_1254_ACQVPEPEER (UniProt Q86VI3)”, the “probe-labelled cysteine peptide fold change” value runs as follows: (10 µM) 0.125; (50 µM) 0.0621.
The matching figures for “IPO5_O00410_750_GPEYLTQMWHFMCDALIK (UniProt O00410)”: 0.397 and 0.43.
